# Laboratory results published in the supplement of paper PMC10331698.
# ± gives the standard deviation of the averaged measurements. Small differences around the control level are noise.
# Legend:
# Assay in all cases: level (log10 ratio to DMSO vehicle control); higher = higher biomarker level / cell amount than vehicle control
# [1] = compound: C=C(C)C(=O)OCC(F)(F)C(F)(F)C(F)(F)F [2,2,3,3,4,4,4-Heptafluorobutyl methacrylate]; settings: 2200 nM; in DMSO
# Procedure: (§1)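 BioMAP Diversity Plus panel of 12 human primary cell co-culture systems (3C, 4H, LPS, SAg, BT, BF4T, BE3C, CASM3C, HDF3CGF, KF3CT, MyoF, Mphg). Compounds were added 1 h before stimulation and left for 24 h (MyoF 48 h; BT 72 h for soluble read-outs or 6 d for IgG). Biomarkers were read by ELISA, cytotoxicity by SRB, PBMC viability and proliferation by Alamar Blue. Each well value was divided by the mean of 8 DMSO control wells on the same plate and log10 transformed; duplicate blinded samples were tested at 4 concentrations.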
# [2] = compound: C=CC(=O)OCC(F)(F)C(F)(F)C(F)(F)C(F)(F)COC(=O)C=C [1H,1H,6H,6H-Perfluorohexane-1,6-diol diacrylate]; settings: 2200 nM; in DMSO
# Procedure: as §1
# [3] = compound: FC(F)(F)C(F)(F)C(F)(F)C(F)(F)C(F)(F)C(F)(F)C(F)(F)CCI [1-Iodo-1H,1H,2H,2H-perfluorononane]; settings: in DMSO
# Procedure: as §1
# [4] = compound: FC(F)(F)C(F)(F)C(F)(F)C(F)(F)C(F)(F)C(F)(F)C(F)(F)I [1-Iodopentadecafluoroheptane]; settings: in DMSO
# Procedure: as §1
# [5] = compound: FC(F)C(F)(F)COCC1CO1 [((2,2,3,3-Tetrafluoropropoxy)methyl)oxirane]; settings: 2200 nM; in DMSO
# Procedure: as §1
# Perfluorooctanamide = compound: NC(=O)C(F)(F)C(F)(F)C(F)(F)C(F)(F)C(F)(F)C(F)(F)C(F)(F)F [Perfluorooctanamide]; settings: 2200 nM; in DMSO
# Procedure: as §1
# Perfluoroundecanoic acid = compound: O=C(O)C(F)(F)C(F)(F)C(F)(F)C(F)(F)C(F)(F)C(F)(F)C(F)(F)C(F)(F)C(F)(F)C(F)(F)F [Perfluoroundecanoic acid]; settings: in DMSO
# Procedure: as §1
# [6] = compound: O=C(O)C(F)(F)C(F)(F)C(F)(F)C(F)(F)C(F)(F)C(F)(F)C(F)(F)C(F)F [9-H-Perfluorononanoic acid]; settings: 2200 nM; in DMSO
# Procedure: as §1
# Perfluorobutanoic acid = compound: O=C(O)C(F)(F)C(F)(F)C(F)(F)F [Perfluorobutanoic acid]; settings: 2200 nM; in DMSO
# Procedure: as §1
# Perfluoropropanoic acid = compound: O=C(O)C(F)(F)C(F)(F)F [Perfluoropropanoic acid]; settings: 2200 nM; in DMSO
# Procedure: as §1
# [7] = compound: O=C(O)C(F)(F)C(F)(F)OC(F)(F)F [Perfluoro-3-methoxypropanoic acid]; settings: 2200 nM; in DMSO
# Procedure: as §1
# [8] = compound: O=C(O)C(F)(F)OC(F)(F)C(F)(F)OC(F)(F)C(=O)O [Perfluoro-3,6-dioxaoctane-1,8-dioic acid]; settings: 2200 nM; in DMSO
# Procedure: as §1
# [9] = compound: O=C(O)C(F)(F)OC(F)(F)C(F)(F)OC(F)(F)C(F)(F)C(F)(F)C(F)(F)F [Perfluoro-3,6-dioxadecanoic acid]; settings: 2200 nM; in DMSO
# Procedure: as §1
# [10] = compound: O=C(O)C=CC(F)(C(F)(F)F)C(F)(F)F [3-(Perfluoroisopropyl)-2-propenoic acid]; settings: in DMSO
# Procedure: as §1
# [11] = compound: O=P(O)(O)CCC(F)(F)C(F)(F)C(F)(F)C(F)(F)C(F)(F)C(F)(F)C(F)(F)C(F)(F)F [((Perfluorooctyl)ethyl)phosphonic acid]; settings: 2200 nM; in DMSO
# Procedure: as §1
# [12] = compound: O=S(=O)(Cl)C(F)(F)C(F)(F)C(F)(F)C(F)(F)C(F)(F)C(F)(F)C(F)(F)C(F)(F)F [Perfluoro-1-octanesulfonyl chloride]; settings: 2200 nM; in DMSO
# Procedure: as §1
# [13] = compound: OCC(F)(F)C(F)(F)C(F)(F)C(F)(F)C(F)(F)C(F)(F)C(F)(F)C(F)(F)C(F)(F)C(F)(F)C(F)(F)F [11:1 Fluorotelomer alcohol]; settings: in DMSO
# Procedure: as §1
# [14] = compound: OCCC(F)(F)C(F)(F)C(F)(F)C(F)(F)C(F)(F)C(F)(F)C(F)(F)C(F)(F)F [8:2 Fluorotelomer alcohol]; settings: 2200 nM; in DMSO
# Procedure: as §1
Test System,level (log10) [1],level (log10) [2],level (log10) ([3]; 740 nM),level (log10) ([3]; 2200 nM),level (log10) ([3]; 6700 nM),level (log10) ([3]; 20000 nM),level (log10) ([4]; 740 nM),level (log10) ([4]; 2200 nM),level (log10) ([4]; 6700 nM),level (log10) ([4]; 20000 nM),level (log10) [5],level (log10) (Perfluorooctanamide),level (log10) (Perfluoroundecanoic acid; 740 nM),level (log10) (Perfluoroundecanoic acid; 2200 nM),level (log10) [6],level (log10) (Perfluorobutanoic acid),level (log10) (Perfluoropropanoic acid),level (log10) [7],level (log10) [8],level (log10) [9],level (log10) ([10]; 2200 nM),level (log10) ([10]; 6700 nM),level (log10) ([10]; 20000 nM),level (log10) ([10]; 60000 nM),level (log10) [11],level (log10) [12],level (log10) ([13]; 370 nM),level (log10) ([13]; 1100 nM),level (log10) ([13]; 3300 nM),level (log10) ([13]; 10000 nM),level (log10) [14]
BE3C:HLA-DR,0.0025 ± 0.0035,-0.002 ± 0.017,0.0005 ± 0.015,0.0135 ± 0.00071,-0.0065 ± 0.0035,-0.0225 ± 0.0092,-0.0045 ± 0.021,-0.0055 ± 0.0035,0.0035 ± 0.0021,0.0015 ± 0.0078,0.0145 ± 0.00071,0.01 ± 0.0042,-0.0045 ± 0.00071,-0.0075 ± 0.0021,-0.04 ± 0.02,-0.004 ± 0.021,-0.0115 ± 0.018,0.0065 ± 0.028,0.0015 ± 0.029,-0.015 ± 0.025,0.0155 ± 0.032,-0.0075 ± 0.013,0.0035 ± 0.015,0.0095 ± 0.018,0.0145 ± 0.018,0.021 ± 0.031,-0.035 ± 0.0057,-0.0755 ± 0.037,-0.141 ± 0.015,-0.163 ± 0.0042,0.0125 ± 0.0035
lMphg:CD40,0.0105 ± 0.0064,-0.0045 ± 0.012,-0.01 ± 0.038,-0.0015 ± 0.028,-0.0065 ± 0.00071,-0.0225 ± 0.028,0.0205 ± 0.005,0.0175 ± 0.042,-0.0175 ± 0.052,-0.0365 ± 0.046,0.009 ± 0.011,-0.0015 ± 0.00071,0.0175 ± 0.026,0.0005 ± 0.0064,-0.0185 ± 0.005,-0.046 ± 0.083,0.0055 ± 0.026,-0.01 ± 0.034,-0.0065 ± 0.0092,-0.0295 ± 0.016,-0.0035 ± 0.012,-0.0395 ± 0.053,-0.01 ± 0.025,-0.0045 ± 0.019,-0.034 ± 0.0042,-0.0065 ± 0.012,0.015 ± 0.023,0.0005 ± 0.036,0.005 ± 0.042,-0.357 ± 0.028,-0.004 ± 0.0085
HDF3CGF:Collagen III,-0.127 ± 0.052,0.12 ± 0.073,-0.0005 ± 0.021,-0.0035 ± 0.025,-0.063 ± 0.023,-0.138 ± 0.028,-0.0255 ± 0.00071,-0.01 ± 0.0099,-0.024 ± 0.014,-0.023 ± 0.028,-0.016 ± 0.0099,0.013 ± 0.018,-0.0025 ± 0.0021,-0.009 ± 0.0071,-0.0545 ± 0.037,0.0115 ± 0.039,-0.0215 ± 0.052,0.004 ± 0.023,0.0025 ± 0.039,-0.0015 ± 0.039,-0.0075 ± 0.042,-0.0125 ± 0.00071,0.009 ± 0.0014,0.033 ± 0.038,-0.0665 ± 0.018,0.0135 ± 0.032,0.0815 ± 0.044,0.2 ± 0.0021,0.168 ± 0.057,0.171 ± 0.0042,0.042 ± 0.033
KF3CT:MMP-9,-0.012 ± 0.0028,0.007 ± 0.045,0.0025 ± 0.026,0.005 ± 0.0042,-0.006 ± 0.0042,0.0165 ± 0.013,-0.04 ± 0.051,-0.0815 ± 0.087,-0.05 ± 0.11,-0.0495 ± 0.056,0.0155 ± 0.033,-0.001 ± 0.02,-0.066 ± 0.018,-0.0335 ± 0.0092,-0.028 ± 0.025,0.01 ± 0.023,-0.0135 ± 0.032,0.0015 ± 0.0021,-0.0015 ± 0.0021,-0.004 ± 0.038,0.006 ± 0.011,-0.0175 ± 0.016,0.006 ± 0.0071,0.018 ± 0.014,0.0075 ± 0.0078,-0.0155 ± 0.016,-0.029 ± 0.038,-0.042 ± 0.0099,-0.071 ± 0.027,-0.0545 ± 0.026,-0.042 ± 0.011
HDF3CGF:CCL2/MCP-1,0.006 ± 0.0057,-0.05 ± 0.0014,-0.0045 ± 0.018,-0.0245 ± 0.015,-0.034 ± 0.017,-0.018 ± 0.016,-0.005 ± 0.011,-0.0235 ± 0.013,-0.0205 ± 0.025,-0.0335 ± 0.0035,0.0005 ± 0.005,-0.021 ± 0.011,0.0085 ± 0.033,-0.0195 ± 0.011,-0.0095 ± 0.021,0.0205 ± 0.033,-0.0045 ± 0.032,-0.013 ± 0.0071,-0.015 ± 0.0014,0.0005 ± 0.022,-0.0125 ± 0.03,-0.006 ± 0.018,0.006 ± 0.0085,0.017 ± 0.017,0.037 ± 0.025,-0.04 ± 0.078,-0.0005 ± 0.035,0.0305 ± 0.033,0.0075 ± 0.0064,0.0095 ± 0.015,-0.0135 ± 0.03
3C:HLA-DR,0.007 ± 0.023,-0.0025 ± 0.0078,0.0165 ± 0.005,0.0135 ± 0.018,-0.001 ± 0.017,0.0155 ± 0.025,-0.024 ± 0.02,-0.015,-0.019 ± 0.0057,-0.0075 ± 0.015,0.037 ± 0.017,0.0045 ± 0.019,-0.014 ± 0.016,-0.025 ± 0.023,0.002 ± 0.017,-0.0185 ± 0.011,0.015,0.016 ± 0.033,0.0005 ± 0.0064,0.048 ± 0.028,0.0145 ± 0.0035,0.0095 ± 0.005,-0.0135 ± 0.022,-0.003 ± 0.028,0.0345 ± 0.0078,-0.014 ± 0.021,-0.0055 ± 0.005,-0.019 ± 0.0042,-0.034 ± 0.011,-0.04 ± 0.016,-0.004 ± 0.047
MyoF:Decorin,0.0145 ± 0.015,-0.0115 ± 0.0021,0.01 ± 0.033,0.0185 ± 0.0078,0.014 ± 0.0042,0.038 ± 0.05,0.0435 ± 0.0035,-0.0055 ± 0.015,0.0365 ± 0.049,0.0215 ± 0.029,0 ± 0.018,0.009 ± 0.041,0.0005 ± 0.037,-0.0075 ± 0.053,0.019 ± 0.024,-0.0235 ± 0.0021,0.0185 ± 0.063,0.01 ± 0.04,0.009 ± 0.035,0.0065 ± 0.015,0.0065 ± 0.036,-0.0045 ± 0.021,0.004 ± 0.0014,0.0225 ± 0.029,0.0305 ± 0.052,-0.0165 ± 0.0064,0.0125 ± 0.042,0.0065 ± 0.028,0.013 ± 0.021,0.0255 ± 0.0021,-0.0035 ± 0.035
